For five substances, binding results are on record in PMC12639135.

Amino acid sequences for entries named in this document (tags omitted). A change or cut given only in a name is not applied to a line headed by its entry.
UniProt P27694: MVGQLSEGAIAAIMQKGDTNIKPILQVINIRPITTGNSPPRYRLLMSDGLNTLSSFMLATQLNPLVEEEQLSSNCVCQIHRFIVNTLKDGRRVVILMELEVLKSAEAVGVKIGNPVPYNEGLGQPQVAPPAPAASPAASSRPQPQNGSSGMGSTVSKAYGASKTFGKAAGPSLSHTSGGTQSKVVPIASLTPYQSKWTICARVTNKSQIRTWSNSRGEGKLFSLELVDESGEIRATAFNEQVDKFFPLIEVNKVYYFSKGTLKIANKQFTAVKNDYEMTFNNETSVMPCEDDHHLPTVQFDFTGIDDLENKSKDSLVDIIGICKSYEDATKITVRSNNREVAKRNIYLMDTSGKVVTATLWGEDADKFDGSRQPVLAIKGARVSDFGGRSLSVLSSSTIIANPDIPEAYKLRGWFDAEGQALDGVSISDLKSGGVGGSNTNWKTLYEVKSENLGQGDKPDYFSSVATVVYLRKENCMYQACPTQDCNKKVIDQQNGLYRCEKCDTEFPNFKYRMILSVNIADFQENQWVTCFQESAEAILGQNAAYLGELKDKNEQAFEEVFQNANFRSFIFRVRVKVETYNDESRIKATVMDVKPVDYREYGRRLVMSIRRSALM
UniProt O14929: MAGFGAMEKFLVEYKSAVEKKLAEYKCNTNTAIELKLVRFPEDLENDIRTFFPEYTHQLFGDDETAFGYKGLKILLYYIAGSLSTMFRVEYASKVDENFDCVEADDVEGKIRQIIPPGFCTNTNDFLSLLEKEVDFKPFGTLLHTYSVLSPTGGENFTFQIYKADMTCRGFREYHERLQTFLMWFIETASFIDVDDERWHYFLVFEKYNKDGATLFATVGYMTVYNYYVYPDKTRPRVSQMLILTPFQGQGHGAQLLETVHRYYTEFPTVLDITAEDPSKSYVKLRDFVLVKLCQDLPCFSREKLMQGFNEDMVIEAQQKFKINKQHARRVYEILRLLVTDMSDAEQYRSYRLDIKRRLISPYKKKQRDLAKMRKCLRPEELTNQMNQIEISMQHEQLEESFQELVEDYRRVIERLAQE
UniProt P54132: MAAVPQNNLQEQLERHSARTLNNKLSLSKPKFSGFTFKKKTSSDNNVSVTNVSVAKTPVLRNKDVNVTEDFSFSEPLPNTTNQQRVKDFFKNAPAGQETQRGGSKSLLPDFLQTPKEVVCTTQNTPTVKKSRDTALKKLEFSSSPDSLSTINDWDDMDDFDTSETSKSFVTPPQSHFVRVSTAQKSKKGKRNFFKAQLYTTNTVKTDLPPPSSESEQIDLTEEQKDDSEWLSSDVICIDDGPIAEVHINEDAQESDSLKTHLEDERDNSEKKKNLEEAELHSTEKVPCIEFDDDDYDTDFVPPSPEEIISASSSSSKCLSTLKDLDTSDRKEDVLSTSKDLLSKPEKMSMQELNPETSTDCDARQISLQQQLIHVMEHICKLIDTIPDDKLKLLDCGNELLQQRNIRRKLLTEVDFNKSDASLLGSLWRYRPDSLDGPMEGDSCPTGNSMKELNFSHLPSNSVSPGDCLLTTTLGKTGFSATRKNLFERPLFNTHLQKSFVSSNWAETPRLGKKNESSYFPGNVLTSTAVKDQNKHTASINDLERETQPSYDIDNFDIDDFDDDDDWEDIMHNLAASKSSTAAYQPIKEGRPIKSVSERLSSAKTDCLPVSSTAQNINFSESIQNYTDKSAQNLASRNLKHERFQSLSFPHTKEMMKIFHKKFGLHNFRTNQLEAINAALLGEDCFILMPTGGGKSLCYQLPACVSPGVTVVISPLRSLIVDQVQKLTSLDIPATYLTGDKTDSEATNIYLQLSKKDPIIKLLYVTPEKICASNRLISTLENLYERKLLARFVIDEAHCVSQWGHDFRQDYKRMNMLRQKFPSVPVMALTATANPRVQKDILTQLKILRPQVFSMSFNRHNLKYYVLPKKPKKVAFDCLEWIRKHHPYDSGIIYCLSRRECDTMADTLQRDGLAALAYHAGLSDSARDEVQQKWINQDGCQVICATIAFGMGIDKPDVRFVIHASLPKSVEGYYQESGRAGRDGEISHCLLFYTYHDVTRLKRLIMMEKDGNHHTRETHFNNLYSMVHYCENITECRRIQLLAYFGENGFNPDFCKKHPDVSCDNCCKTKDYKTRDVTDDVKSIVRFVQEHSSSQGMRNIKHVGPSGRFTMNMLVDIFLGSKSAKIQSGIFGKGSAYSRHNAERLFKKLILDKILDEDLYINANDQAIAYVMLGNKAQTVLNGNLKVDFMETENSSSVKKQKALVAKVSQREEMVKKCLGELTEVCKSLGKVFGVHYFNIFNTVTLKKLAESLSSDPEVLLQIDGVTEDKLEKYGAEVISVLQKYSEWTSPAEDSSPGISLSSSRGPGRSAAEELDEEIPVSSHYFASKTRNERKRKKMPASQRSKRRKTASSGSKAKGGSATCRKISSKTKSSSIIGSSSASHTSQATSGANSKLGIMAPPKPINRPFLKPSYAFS

In assay [1] the target is Flag-tagged RPA1 (UniProt P27694). Put plainly: co-IP; 293T cells transfected with RPA1 or RPA1 K88R, K163R, K167R, K267R; RPA1-bound endogenous HR factors detected.
The target in a further assay is RPA1 K88R (UniProt P27694). The description is as above.
For another assay, the target named is RPA1 K163R (UniProt P27694). The assay is described as above.
Another assay deals with RPA1 K267R (UniProt P27694). Described as above.
The target of another assay is RPA1 K167R (UniProt P27694). Described as above.
In the next assay the target is HA-tagged HAT1 (UniProt O14929). Put plainly: co-IP; exogenous HAT1 and exogenous RPA1 in 293T cells, HA-Trap, Western blot. On the technique in general: A western blot detects proteins with antibodies after separation by electrophoresis.
In assay [2] the target is Flag-tagged RPA1 (UniProt P27694). Put plainly: co-IP; exogenous HAT1 and exogenous RPA1 in 293T cells, Flag-Trap, Western blot.
The target in assay [3] is RPA1 (endogenous) (human (endogenous in A549 and H1299)) (UniProt P27694). The assay can be described thus: co-IP; endogenous proteins, A549 and H1299 lysates (Western and IP lysis buffer), antibody on magnetic beads, 4 °C overnight, Western blot.
Another assay deals with Flag-tagged HAT1 (UniProt O14929). The assay can be described thus: co-IP; proteins that interact with HAT1, shown by silver staining; cell line not stated.

These are yes or no findings as the source states them, for the method shown. In cells and extracts the contact can be indirect. Some binding calls cover weakened binding; strength is not graded here.

Consider “BLM (endogenous) (from UniProt P54132 1-1417)”, for which the binding result in the assay with Flag-tagged RPA1 [1], in the assay with RPA1 K88R, with RPA1 K163R, with RPA1 K267R and with RPA1 K167R was “binds” throughout.

Take “Flag-tagged RPA1 (from UniProt P27694 1-616)”: the binding entry in the assay with HA-tagged HAT1 was “binds”.

On to “HA-tagged HAT1 (from UniProt O14929 1-419)”, for which, in the assay with Flag-tagged RPA1 [2], the binding entry was “binds”.

Turning to “HAT1 (endogenous) (from UniProt O14929 1-419)”, in assay [3], the binding result was “binds”.

Consider “RPA1 (endogenous) (from UniProt P27694 1-616)”, for which, in the assay with Flag-tagged HAT1, the binding result is reported as “binds”.
